Experimental data reported in patent publication EP4778940A1 (Artivila (ShenZhen) Innovation Center, Ltd., dated 2026).
These are yes or no findings as the source states them, for the method shown. A result given as binding can be weak or reduced; the word gives no strength.

Molecular target: cynomolgus monkey HHLA2 on HEK293 cells (HEK293-cyHHLA2) (cynomolgus monkey)
Test: flow cytometry on HEK293-cyHHLA2 cells

Row | Binder | binding
1 | Ab01-84M2 (antibody, V domains shown) VH: DVQLQESGGGLVQAGGSLRLSCAASGFPFDDYSIGWFRQAPGKAREGISCISSTHGTTYYTDSVKDRFTITRDNAKNTVYLQMNNLKPEDAAVYYCAAGLDGLACHRRDSGSRYRTQLYDYWGQGTQVTVSS | binds
2 | Ab01-122M1 (antibody, V domains shown) VH: DVQLQESGGGLVQPGGSLKLSCTASRRIFTFTAAGWYRQAPGQQREFVAVIANGGHTNYADSVKGRFTISRDNAKNTVYLQMNSLKPEDTAVYYCNTPPAFGSWGPGTQVTVSS | binds
3 | Ab01-126M1 (antibody, V domains shown) VH: DVQLQESGGGLVQPGGSLRLSCTASTRIFTFSAAGWYRQAPGKQREFVAVITGGGHTNYADSVKGRFTISRDNAKDTVYLQMNSLKPEDTAVYYCNTPPAFGSWGPGTQVTVSS | binds
4 | Ab01-91M2 (antibody, V domains shown) VH: DVQLQESGGGLVQPGGSLRLSCAASGFTFSNYLMGWYRQAPGKERELVAAINSAGYSTVYAESVKGRFTTSRDNAKSMVYLQMNSLKAEDTAVYYCNARYDRWHDYWGQGTQVTVSS | binds
5 | Ab01-63M2 (antibody, V domains shown, also called candidate parental antibody Ab01-63M2) VH: DVQLQESGGGLVQPGGSLRLSCAASGFTLDYYVIGWFRQAPGKEREGVSCISSSDGSTYSADSVKGRFTISRDNAENTVYLQMNSLKPEDTAVYYCAARRSPGIEGWCALPFFFGSWGQGTQVTVSS | binds
6 | Ab01-7M2 (antibody, V domains shown) VH: DVQLQESGGGLVQPGGSLRLSCAASGFTFSSTPMYWYRQAPGKERDFVAIMAPGGYEDIADSVRGRFSISRDNGNNTMYLQMNSLKPEDTALYYCRALNSWGQGTQVTVSS | binds

Other lines, results leading:

Row | binding | Binder
7 | binds | Ab01-110M1 (antibody, V domains shown) VH: DVQLQESGGGLVQTGGSLRLSCAAPGFTLDDYAIGWFRQAPGKERERISCITSSTNRTYYANSVKGRFTISRDSAKNTVYLQMNSLKPEDTAVYYCAAEPILCVLWSAGGAMDYWGKGTQVTVSS
8 | binds | positive control antibody 2C4 (antibody, V domains shown, also called positive control 2C4; positive antibody) VH: EVHLQQSGPELEKPGVSVKISCKASGFSFTDYNMNWVKQSSGKSLEWIGNIDPYYGRINYNQKFKGKATLSVDKSSSTAYMHLKSLTSEDSAVYYCATGAYTSGYSWFAYWGQGTLVTVSS VL: ENVLTQSPGIMAASLGEKVTMTCSASSSVSSSYLHWYQQRSGASPKPLIHRTSNLASGVPARFSGSGSGTSYSLTISSVEAEDDATYYCQQWSGYPFTFGSGTKLEIK
9 | binds | Ab01-121M1 (antibody, V domains shown) VH: DVQLQESGGGLVQPGGSLRLSCAASGSRFSFNVMGWHRQAPGKQRELVALISSGGTANYADSVKGRFTISRDNAGNTMYLQMNTLKPEDTAVYYCTATTPVGQYWGQGTQVTVSS
